Data reported in PubChem BioAssay AID2685 (National Center for Advancing Translational Sciences (NCATS), 2010).
The list shows a part of the results. These are further read-outs of the screen, such as a control signal, another cell line or another target. No call is given for them. Compounds called inactive in the main read-out are mostly missing here. Words in brackets tell the shape of the fitted curve; partial curves, single points and poor fits give uncertain potencies.

Experiment: qHTS Assay for Lipid Storage Modulators in Drosophila S3 Cells;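 as to cell number change: cells counted by Cell Tracker Red CMTPX staining in the red channel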
Details: BODIPY lipid droplet fluorescence, 18-24 h; for cell number change: measured here: cell count max response, cells fed with added oleic acid
Summary of the method: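 Drosophila S3 cells got compounds at several concentrations plus oleic acid (400 uM solution). Laser-scanning cytometry with 488 nm excitation read lipid droplets at 500-530 nm and cells at 575-640 nm. Percent activity was relative to 20 uM Triacsin C.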

[1] = measured here: lipid fluorescence (Fed channel) AC50, cells fed with added oleic acid
[2] = measured here: cell number channel AC50, cells fed with added oleic acid

SMILES | cell number change | AC50 [1] | AC50 [2]
COc1ccc(C(=O)O)cc1F | 2.7% | 6.51 µM [falling, single point] | –
CC(=O)c1c(C)[nH]c(C(=O)CN2C(=O)NC3(CCCCC3C)C2=O)c1C (stereo unspecified) | 57.5% | – | 18.4 µM [rising, single point]
Cc1cccc(C)c1N1CCN(C(=O)c2ccc3c(c2)OCO3)CC1 | -22% | 2.91 µM [rising, single point] | –
OC(c1cc(-c2ccc(C(F)(F)F)cc2)nc(C(F)(F)F)c1)C1CCCCN1 (stereo unspecified) | -101% | 11.6 µM [falling, partial curve] | 13 µM [falling, partial curve]
CSc1nnnn1CCn1nnnc1SC | 18.4% | – | –
O=C(COc1ccccc1)N=C1SC2CS(=O)(=O)CC2N1CCc1ccccc1 (stereo unspecified) | -6.73% | 0.58 µM [rising, single point] | –
COc1cccc(-n2cc(CNCc3cn(C)nc3-c3ccccc3F)cn2)c1 | -26.7% | 20.6 µM [falling, single point] | –
CC(=O)c1cccc(NC(=O)c2cc(C(C)C)on2)c1 | 26.3% | 6.51 µM [rising, single point] | –
CC(=O)Nc1ccc(C(=O)CSc2nnc(-c3ccc(O)cc3)n2CC2CCCO2)cc1 (stereo unspecified) | -10.3% | – | –
Cc1ccc(Oc2nc3ccccc3n3c(C)nnc23)c(C)c1 | – | 1.3 µM [rising, full curve] | 1.16 µM [rising, full curve]
Cc1nnc(SCC(=O)NC2CCCCCC2)n1C | -10.8% | 4.11 µM [rising, single point] | –
CC(C)(C)Nc1nc(SCc2ccccc2)nc(N2CCOCC2)n1 | -25.2% | 5.17 µM [rising, partial curve] | –
COc1cc(-c2cc(=O)c3c(O)c(OC)c(OC)cc3o2)cc(OC)c1O | -42.4% | 29.1 µM [falling, single point] | 29.1 µM [falling, single point]
O=C(O)c1ccccc1OCc1nc2ccccc2s1 | -21.1% | – | –
CCOc1cccc(/C=N/NC(=S)Nc2cc(S(=O)(=O)N3CCOCC3)ccc2N2CCOCC2)c1O | -40.8% | 10.3 µM [falling, partial curve] | 32.6 µM [falling, single point]
COC(=O)c1ccccc1-n1cccc1C(=O)NP(=O)(N1CCOCC1)N1CCOCC1 | -17.4% | 32.6 µM [falling, single point] | –
O=C1CC(C2CCCO2)C(=O)N1c1cccc(Cl)c1 (stereo unspecified) | 15.6% | 6.51 µM [falling, single point] | –
Cc1oc(-c2ccccc2F)nc1CSCC(=O)NC1CC1 | 88.2% | 29.1 µM [rising, single point] | 16.4 µM [rising, single point]
Cc1ccc(-c2nc(NC(=O)CSc3nnnn3-c3ccccc3)ns2)cc1 | -8.07% | 0.517 µM [rising, single point] | –
COc1ccc(N/C=C(\C(C)=O)c2ccc(OC)c(OC)c2)cc1OC | 17.1% | – | –
NC(=O)c1ccc2c(=O)c(O)c(-c3cc(Cl)c(N)c(Cl)c3)[nH]c2c1 | -3.88% | – | –

SMILES | cell number change | AC50 [1] | AC50 [2]
CCOC(=O)N1CCC(NC(=O)CSCc2nc(-c3ccc(C)cc3)oc2C)CC1 | – | 1.64 µM [rising, single point] | –
Cc1cccc(-c2ncc(CN3CCCC(CO)(Cc4cccc(Cl)c4)C3)cn2)c1 (stereo unspecified) | -8.24% | 11.6 µM [falling, single point] | –
CCOC(=O)CN1N=C(/C=C/c2ccc(OCC)cc2)CCC1=O | -16.9% | 2.06 µM [rising, partial curve] | 1.46 µM [rising, full curve]
Cc1cc(C(=O)NN=C2CCCCCC2)c(C)o1 | -2.68% | 1.64 µM [falling, partial curve] | –
CCN(CC1CCCO1)C(=O)c1cc(COc2ccccc2SC)on1 (stereo unspecified) | 50.8% | – | 25.9 µM [rising, single point]
COCC1CCCN(C(=O)c2ccc3oc(C(C)C)nc3c2)C1 (stereo unspecified) | -40.6% | – | 29.1 µM [falling, single point]
Cc1nn(Cc2cccc(C(=O)NC(C)c3ccc(C(C)(C)C)cc3)c2)c(C)c1[N+](=O)[O-] (stereo unspecified) | -20.6% | 20.6 µM [falling, single point] | –
CCC(C)NC(=O)c1cc(-c2cccs2)nc2ccccc12 (stereo unspecified) | -0.926% | 0.13 µM [rising, full curve, poor fit] | –
NC(=O)c1nsc(C(=O)N(CC(=O)NC2CCCC2)Cc2ccc3c(c2)OCO3)c1N | 29.3% | 11.6 µM [rising, partial curve, poor fit] | –
COc1cc(CC(=O)OCC(=O)Nc2ccc3c(c2)OCCO3)cc(OC)c1OC | -2.09% | 6.51 µM [rising, partial curve, poor fit] | –
N=c1c(S(=O)(=O)c2ccc(Br)cc2)cc2c(=O)n3ccccc3nc2n1C1CCCC1 | 27.6% | 0.651 µM [falling, partial curve, poor fit] | –
Cc1cc(N2CCN(c3ncccn3)CC2)nc2c(C)cccc12 | 23.2% | – | –
C[C@@H](C(=O)NCc1ccco1)N1C(=O)N2CCc3c([nH]c4ccccc34)[C@@]2(C)C1=O | 9.71% | 29.1 µM [rising, single point] | –
CC(=O)Nc1ccc(C=C(C(C)=O)C(C)=O)cc1 | -33.4% | – | 25.9 µM [falling, single point]
Cc1c(-c2ccc(Cl)cc2Cl)nc2ccccc2c1C(=O)NCCN1CCOCC1 | 19.8% | 16.4 µM [rising, single point] | –
C/C(=N\NC(=O)c1ccoc1C)c1ccccc1O | 7.5% | 29.1 µM [falling, single point] | –
COc1ccccc1Cc1nnc(NC(=O)C2CCN(C(=O)c3ccco3)CC2)s1 | 23.9% | 0.103 µM [falling, full curve, poor fit] | –
C=CCn1c(C(CCC(C)C)CC(C)(C)O)n[nH]c1=S (stereo unspecified) | 45.2% | – | 2.59 µM [rising, full curve]
O=c1c(Cc2ccccc2)c(O)nc2n1CCCS2 | -6.57% | 2.06 µM [falling, partial curve] | –
c1ccc2c(c1)nc1n2CCN1CCNC1CCCCC1 | -74.4% | – | 29.1 µM [falling, partial curve, poor fit]
CCOc1ccccc1CN1CCNC(=O)C1CC(=O)N(C)CCC1CCOCC1 (stereo unspecified) | 17.3% | 29.1 µM [rising, single point] | –

SMILES | cell number change | AC50 [1] | AC50 [2]
Cc1cc(-c2cc(-c3ccc(Cl)cc3)on2)nc(NC2CCCC2)n1 | -0.164% | 0.0651 µM [rising, full curve, poor fit] | –
S=c1[nH]nc(Cc2ccccc2)n1-c1cccc2ccccc12 | 20.7% | – | 0.103 µM [rising, full curve, poor fit]
O=C(NCc1cccc2ccccc12)Nc1ccccc1 | 32.9% | 29.1 µM [rising, single point] | 23.1 µM [rising, single point]
Cc1ccc(C(=O)Nc2ccccc2[N+](=O)[O-])cc1S(=O)(=O)N1CCOCC1 | 13.5% | – | 5.17 µM [rising, partial curve]
N#CC1=C(N)Oc2c(oc(CO)cc2=O)C12C(=O)Nc1ccc(Cl)cc12 (stereo unspecified) | 4.12% | 0.13 µM [falling, full curve, poor fit] | –
CCOC(=O)N1CCN(C(=O)c2oc3ccc(S(=O)(=O)N(CC)CC)cc3c2C)CC1 | -20.9% | 29.1 µM [falling, single point] | –
O=C(COCc1cc(-c2ccc3c(c2)OCO3)on1)N1CCN(c2cccc(C(F)(F)F)c2)CC1 | 26.9% | 16.4 µM [rising, partial curve] | –
CCC1CCc2sc(C(=O)NCC(c3ccccc3OC)N3CCCC3)cc2C1 (stereo unspecified) | -8.89% | 11.6 µM [rising, single point] | –
CC(C)NC(=O)CSc1nnc(COc2ccccc2Cl)o1 | -0.705% | 0.0517 µM [rising, full curve, poor fit] | –
O=C(NCCN1CCCC1)c1ccc(Cl)cc1Cl | -5.82% | – | –
CC1(C)Cc2cccc(OCC(O)CNCc3ccccn3)c2O1 (stereo unspecified) | 31.9% | – | 25.9 µM [rising, single point]
Cn1c(SCc2n[nH]c(=S)o2)nnc1-c1ccccc1 | 142% | – | –
COc1ccc(N(CC(=O)Nc2cc(C)ccc2OC)S(=O)(=O)c2c(C)noc2C)cc1 | 0.354% | 3.66 µM [rising, full curve, poor fit] | –
C=CCNC(=O)C1CCN(c2cc(C)nc(-c3ccccc3)n2)CC1 | -22.6% | 25.9 µM [falling, partial curve] | –
Nc1nc(SCC(=O)Nc2ccc(Cl)cc2C(F)(F)F)n[nH]1 | -0.293% | 6.51 µM [falling, single point] | –
O=C(O)CCCC(=O)Nc1nncs1 | -37.2% | – | 7.31 µM [falling, single point]
CC1(c2ccccc2)NC(=O)N(CCN2C(=O)c3ccccc3C2=O)C1=O (stereo unspecified) | -8.27% | 0.13 µM [falling, full curve, poor fit] | –
O=C(NCCC1CCCCN1S(=O)(=O)c1ccc(F)cc1)C(=O)Nc1ccccc1 (stereo unspecified) | 3.68% | 0.00411 µM [rising, full curve, poor fit] | –
CCOc1ccc(OCC)c(NC(=O)C2CCCN(c3ncccn3)C2)c1 (stereo unspecified) | 5.68% | 0.517 µM [rising, full curve] | –

Fetched by structure from the entries so far, 2 records:
SMILES | cell number change | AC50 [1] | AC50 [2]
CC(C)NC(=O)CSc1nnc(COc2ccccc2Cl)o1 | -0.705% | 0.0517 µM [rising, full curve, poor fit] | –
CC1(c2ccccc2)NC(=O)N(CCN2C(=O)c3ccccc3C2=O)C1=O (stereo unspecified) | -8.27% | 0.13 µM [falling, full curve, poor fit] | –

Single records, as listed above:
O=C(COCc1cc(-c2ccc3c(c2)OCO3)on1)N1CCN(c2cccc(C(F)(F)F)c2)CC1 is listed as cell number change: 26.9%; AC50 [1]: 16.4 µM [rising, partial curve]
N#CC1=C(N)Oc2c(oc(CO)cc2=O)C12C(=O)Nc1ccc(Cl)cc12 (stereo unspecified) is listed as cell number change: 4.12%; AC50 [1]: 0.13 µM [falling, full curve, poor fit]
